Values of other authors in US9603813B2, “Visual performance and/or macular pigmentation” (Howard Foundation Holdings Limited, priority 2011, dated 2017).
Some of these results come from one statement about several compounds together. At least one structure is not confirmed: it was looked up by name or label, or the drawing left a doubt.

Conditions: egg yolks vs capsules; cited from earlier work

| Compound | uptake from egg yolks more efficient than from capsules |
| --- | --- |
| CC1=C[C@H](O)CC(C)(C)[C@H]1/C=C/C(C)=C/C=C/C(C)=C/C=C/C=C(C)/C=C/C=C(C)/C=C/C1=C(C)C[C@@H](O)CC1(C)C [L, lutein] | 2-4 times |
| CC1=C(/C=C/C(C)=C/C=C/C(C)=C/C=C/C=C(C)/C=C/C=C(C)/C=C/C2=C(C)C[C@@H](O)CC2(C)C)C(C)(C)C[C@H](O)C1 [Z, zeaxanthin] | 2-4 times |
